Settings: mice, gavage for 11 days
Method: One tenth (0.1 ml) of the above suspension is inoculated into the left hind leg muscle (hamstring muscle mass) of each mouse. The inoculated mice are placed into one large cage and then randomly segregated into groups of five mice. The mice are housed in shoe box cages on wood shavings with free access to water and laboratory chow. The mice are weighed on the day of inoculation, on day 7, day 12, at time of sacrifice.

N=C(N)NCCC[C@H](NC(=O)[C@H](CO)NC(=O)CNC(=O)[C@@H](N)Cc1ccc(O)cc1)C(=O)N[C@@H](CO)C(=O)O [Peptide, tyrosine-glycine-serine-arginine-serine]
toxicity (in words, from weight gain): no toxicity

Source: patent US7390874B2, “Peptide, method of production thereof, and pharmaceutical composition containing the same” (Kuboyama Bio Ken, Inc., priority 2003, dated 2008)
